Here are results for 29 molecules from the supplement of paper PMC10735217.

The assay concerns HEK293A TEAD-LUC reporter. The assay can be described thus: TEAD-luciferase reporter activity (YAP activation), robust Z score vs plate; higher = stronger YAP/TEAD activation. The note with it: 24 h.

Counter-ions that a name gives are not always drawn. This is one part of the list. Single values are uncertain here, since repeats match poorly.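 The human kidney-derived cells carry a stably integrated construct of eight TEAD-binding elements driving luciferase, read by luminescence in a drug-repurposing library screen. A compound counts as a hit when its signal is more than five robust Z scores above the plate mean.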

As for `CO/N=C(\C(=O)N[C@@H]1C(=O)N2C(C(=O)O)=C(COC(C)=O)CS[C@H]12)c1ccco1`, the TEAD-luciferase reporter activity runs as follows: (compound concentration: 200 nM) inactive: 0.152; (compound concentration: 2 uM) inactive: -0.276; (compound concentration: 10 uM) inactive: -0.711.

Turning to `COc1ccc(CC(=O)N2Cc3ccccc3CC23CCCN(C(=O)CCN)C3)cc1` (stereo not given), the TEAD-luciferase reporter activity was inactive: 0.968 (compound concentration: 200 nM) and active: 6.98 (compound concentration: 10 uM).

For the molecule `CC(O)C(CO)NC(=O)C1CSSCC(NC(=O)C(N)Cc2ccccc2)C(=O)NC(Cc2ccccc2)C(=O)NC(Cc2c[nH]c3ccccc23)C(=O)NC(CCCCN)C(=O)NC(C(C)O)C(=O)N1` (stereo not given), the TEAD-luciferase reporter activity runs as follows: (compound concentration: 200 nM) inactive: 0.397; (compound concentration: 2 uM) inactive: -0.591; (compound concentration: 10 uM) inactive: -0.58.

As to `CCCCC[C@](C)(O)C=CC1C(O)CC(O)C1CC=CCCCC(=O)O` (stereo not given in full) [Carboprost Tromethamine], the TEAD-luciferase reporter activity is inactive: -0.814 (compound concentration: 200 nM), inactive: -0.547 (compound concentration: 2 uM) and inactive: 1.25 (compound concentration: 10 uM).

Regarding `O=C(NCc1ccncc1)C12CC3CC(C1)CC(c1ccc(Cl)cc1)(C3)C2`, the TEAD-luciferase reporter activity was inactive: -0.766 (compound concentration: 200 nM), inactive: -0.802 (compound concentration: 2 uM) and inactive: -0.0218 (compound concentration: 10 uM).

Regarding `NCCc1c[nH]cn1` [histamine dihydrochloride, EpiCept], the TEAD-luciferase reporter activity (compound concentration: 2 uM) was inactive: -0.76.

With `NCCc1c[nH]cn1` [Histamine dihydrochloride], the TEAD-luciferase reporter activity runs as follows: (compound concentration: 200 nM) inactive: -2; (compound concentration: 10 uM) inactive: -1.88.

On to `CN1C(=O)Cc2cnc(N3CCCCC3)nc21`, for which the TEAD-luciferase reporter activity by setting is: (compound concentration: 200 nM) inactive: -2.76; (compound concentration: 2 uM) inactive: -0.374; (compound concentration: 10 uM) inactive: -1.27.

Turning to `CNCCCC1c2ccccc2C=Cc2ccccc21` [Protriptyline hydrochloride], the TEAD-luciferase reporter activity was inactive: 3.98 (compound concentration: 200 nM), inactive: -1.07 (compound concentration: 2 uM) and inactive: 3.15 (compound concentration: 10 uM).

For the molecule `O=C(CCCNC(=S)Nc1ccc2c(c1)OCO2)NCCCOc1cccc(CN2CCCCC2)c1`, the TEAD-luciferase reporter activity (compound concentration: 200 nM) was inactive: -2.24, the TEAD-luciferase reporter activity (compound concentration: 2 uM) was inactive: -1.35 and the TEAD-luciferase reporter activity (compound concentration: 10 uM) is inactive: -0.0261.

Consider `COC(=O)CCC(=O)CN` [2nd-gen methyl aminolevulinate,PhotoCure], for which the TEAD-luciferase reporter activity (compound concentration: 200 nM) is inactive: -0.355 and the TEAD-luciferase reporter activity (compound concentration: 10 uM) is inactive: -0.155.

Turning to `COC(=O)CCC(=O)CN` [2nd-gen methyl aminolevulinate], the TEAD-luciferase reporter activity (compound concentration: 2 uM) is inactive: 0.198.

As for `N=C(N)c1ccc(C(=O)N[C@@H](Cc2ccc(O)cc2)C(=O)N2CCC(OCC(=O)O)CC2)cc1`, the TEAD-luciferase reporter activity is inactive: 0.886 (compound concentration: 200 nM), inactive: 0.114 (compound concentration: 2 uM) and inactive: 1.21 (compound concentration: 10 uM).

As to `NC(Cc1c[nH]c2ccccc12)C(=O)O` (stereo not given) [tryptophan, Indevus], the TEAD-luciferase reporter activity runs as follows: (compound concentration: 200 nM) inactive: 0.76; (compound concentration: 10 uM) inactive: 1.07.

Regarding `NC(Cc1c[nH]c2ccccc12)C(=O)O` (stereo not given) [tryptophan], under “compound concentration: 2 uM”, the TEAD-luciferase reporter activity was inactive: -0.432.

`CCCOc1cc(N)ccc1C(=O)OCCN(CC)CC`: the TEAD-luciferase reporter activity reads like this: (compound concentration: 200 nM) inactive: -0.675; (compound concentration: 2 uM) inactive: -2.16; (compound concentration: 10 uM) inactive: -0.52.

Regarding `O=Cc1cccc(N2CCN(C(=O)N3CCCC3)CC2=O)c1`, the TEAD-luciferase reporter activity by setting is: (compound concentration: 200 nM) inactive: -0.82; (compound concentration: 10 uM) inactive: -0.491.

Take `C=CCNC(=O)/C=C/c1ccccc1`: the TEAD-luciferase reporter activity is inactive: -1.02 (compound concentration: 200 nM), inactive: -2.13 (compound concentration: 2 uM) and inactive: 3.21 (compound concentration: 10 uM).

With `CC(=O)SC[C@@H](Cc1ccc2c(c1)OCO2)C(=O)NCC(=O)OCc1ccccc1`, the TEAD-luciferase reporter activity is inactive: -0.889 (compound concentration: 200 nM), inactive: -0.675 (compound concentration: 2 uM) and inactive: -0.552 (compound concentration: 10 uM).

For `CN[C@@H]1[C@@H](O[C@H]2O[C@H](CO)[C@@H](N)[C@H](O)[C@H]2O)O[C@H]2C[C@@H](N)[C@@H](O[C@H]3[C@H](O)[C@@H](O)[C@H](N)C[C@@H]3N)O[C@@H]2[C@@H]1O` [Apramycin], the TEAD-luciferase reporter activity is, setting by setting: (compound concentration: 200 nM) inactive: -1.5; (compound concentration: 10 uM) active: 5.62.

As for `CC(C)CCC(O)[C@H](CC1CCCCC1)NC(=O)C(Cc1cnc[nH]1)N(C)C(=O)[C@H](Cc1ccccc1)OC(=O)N(C)CCN(C)C(=O)N1CCOCC1` (stereo not given in full), the TEAD-luciferase reporter activity (compound concentration: 200 nM) is inactive: 1.61, the TEAD-luciferase reporter activity (compound concentration: 2 uM) was inactive: 0.356 and the TEAD-luciferase reporter activity (compound concentration: 10 uM) was inactive: -0.52.

Regarding `O=C(O)C1CCC(CNCc2ccc(F)cc2)CC1` (stereo not given), the TEAD-luciferase reporter activity reads like this: (compound concentration: 200 nM) inactive: -1.1; (compound concentration: 2 uM) inactive: -0.161; (compound concentration: 10 uM) inactive: -0.63.

For `COC(=O)[C@H](Cc1cccc(C(=N)N)c1)[C@@H](C)NC(=O)c1ccc(-c2ccc(OC)c(OC)c2)cc1`, the TEAD-luciferase reporter activity (compound concentration: 200 nM) is inactive: -2.1, the TEAD-luciferase reporter activity (compound concentration: 2 uM) is inactive: -1.07 and the TEAD-luciferase reporter activity (compound concentration: 10 uM) was inactive: 2.41.

With `O=C(c1ccccc1)N1[C@@H]2CC[C@H]1C[C@H](CNC[C@H]1COc3ccc(Cl)cc3O1)C2`, the TEAD-luciferase reporter activity reads like this: (compound concentration: 200 nM) inactive: -0.529; (compound concentration: 2 uM) inactive: -0.306; (compound concentration: 10 uM) inactive: 2.65.

Take `CCCC1CC(C(=O)NC(C(C)O)C2OC(SC)C(O)C(O)C2O)N(C)C1` (stereo not given) [Lincomycin hydrochloride]: the TEAD-luciferase reporter activity runs as follows: (compound concentration: 200 nM) inactive: -2.31; (compound concentration: 2 uM) inactive: -1.47; (compound concentration: 10 uM) inactive: -2.19.

Consider `O=C(C1CCN(c2ccccc2[N+](=O)[O-])CC1)N1CCN(c2ccccc2O)CC1`, for which the TEAD-luciferase reporter activity reads like this: (compound concentration: 200 nM) inactive: -0.683; (compound concentration: 2 uM) inactive: -1.21; (compound concentration: 10 uM) inactive: 1.93.

As for `Cc1ccccc1CN1C(=O)C2=C(CCN(Cc3ccccc3)C2)N2CCN=C12`, the TEAD-luciferase reporter activity is inactive: 0.955 (compound concentration: 200 nM), inactive: -1.41 (compound concentration: 2 uM) and inactive: 1.23 (compound concentration: 10 uM).

As to `c1cc2c3c(c1)[C@H]1CCC[C@H]1CN3CCNC2` [vabicaserin], the TEAD-luciferase reporter activity runs as follows: (compound concentration: 200 nM) inactive: 3.48; (compound concentration: 2 uM) inactive: 0.448; (compound concentration: 10 uM) inactive: -0.709.

In the case of `CC(C)C[C@@H](NC(=O)[C@H](C)NC(=O)CNC(=O)[C@@H](NC=O)C(C)C)C(=O)N[C@@H](C)C(=O)N[C@@H](C(=O)N[C@H](C(=O)N[C@@H](C(=O)N[C@@H](Cc1c[nH]c2ccccc12)C(=O)N[C@H](CC(C)C)C(=O)N[C@@H](Cc1c[nH]c2ccccc12)C(=O)N[C@H](CC(C)C)C(=O)N[C@@H](Cc1c[nH]c2ccccc12)C(=O)N[C@H](CC(C)C)C(=O)N[C@@H](Cc1c[nH]c2ccccc12)C(=O)NCCO)C(C)C)C(C)C)C(C)C`, the TEAD-luciferase reporter activity is, setting by setting: (compound concentration: 200 nM) inactive: 0.053; (compound concentration: 2 uM) inactive: 1.72; (compound concentration: 10 uM) active: 5.6.
